{"sequences": {"note": "Protein sequences, listed by entry. Tags and fused reporters are not part of them. Lines headed by an entry give the natural chain unless they say otherwise; changes in a name come on top.", "UniProt O00167": "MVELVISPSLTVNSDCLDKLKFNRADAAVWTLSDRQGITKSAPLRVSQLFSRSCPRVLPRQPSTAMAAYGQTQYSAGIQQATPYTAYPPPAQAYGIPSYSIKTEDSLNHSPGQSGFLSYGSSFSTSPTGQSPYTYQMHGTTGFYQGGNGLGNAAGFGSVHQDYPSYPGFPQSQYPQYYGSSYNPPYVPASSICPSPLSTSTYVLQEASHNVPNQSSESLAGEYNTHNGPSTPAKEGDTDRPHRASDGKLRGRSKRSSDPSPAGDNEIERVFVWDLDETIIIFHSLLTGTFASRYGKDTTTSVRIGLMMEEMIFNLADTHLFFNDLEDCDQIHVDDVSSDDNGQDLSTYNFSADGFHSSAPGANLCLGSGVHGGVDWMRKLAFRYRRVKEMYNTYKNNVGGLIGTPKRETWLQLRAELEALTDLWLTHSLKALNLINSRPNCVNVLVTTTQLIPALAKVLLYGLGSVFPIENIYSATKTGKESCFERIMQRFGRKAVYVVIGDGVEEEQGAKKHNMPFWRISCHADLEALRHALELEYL"}, "source": "PubChem BioAssay AID488837", "about": "(National Center for Advancing Translational Sciences (NCATS), 2010)", "note": "Hit rate of the full screen: of about 330,000 compounds, about 20 (0.006%) were called active. This list was built around the results that the source calls inconclusive (neither active nor inactive); the mix of calls is not that of the screen. Calls follow the shape of the dose curve; as a rule, active = well fitted inhibition curve with a large enough effect; inconclusive = small, poorly fitted or top-dose-only effect, or effect the other way; inactive = flat fitted curve, though single readings scatter. A potency beside an inconclusive call is a rough fit, not a confirmed value. % is scaled to controls: 0 for no effect and ±100 for the full control effect; potency is read from the fitted curve at half-maximal effect."}
{"target": "Protein phosphatase EYA2 (Homo sapiens) (UniProt O00167)", "experiment": "qHTS Assay for Inhibitors of the Phosphatase Activity of Eya2", "details": "recombinant Eya2, OMFP fluorescence dephosphorylation (OMFP is methylfluorescein phosphate); activity, negative = inhibition: at 76.9 µM (top of the series) unless noted", "how_it_was_run": "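Eya2 (0.2 uM) preincubated 10 min at ambient with compound, then OMFP substrate added at 50 uM; 10 min reaction in 50 mM HEPES pH 7.5, 50 mM NaCl, 5 uM MgCl2, 0.05% BSA, 1 mM DTT. Fluorescence read at Ex 485/Em 525 nm.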"}
{"smiles": "COc1cc(CCCN2C(=S)NC[C@H]2Cc2ccc(O)cc2)cc(OC)c1OC", "Potency": "inconclusive: 25.1 µM [inhibitor, single point]"}
{"smiles": "COC(=O)c1ccc(CSc2nc3ccc(S(N)(=O)=O)cc3[nH]2)cc1", "Potency": "inconclusive: 112 µM [inhibitor, single point]"}
{"smiles": "Cc1[nH]n(-c2ccccc2)c(=O)c1/C=N/Nc1nncc(-c2ccccc2)n1", "Potency": "inactive"}
{"smiles": "CCCNc1nc(C)cc(-c2cc(-c3ccc(Cl)cc3)on2)n1", "Potency": "inconclusive: 22.4 µM [inhibitor, single point]"}
{"smiles": "COc1ccc(OC)c2nc3c(cc12)CCC3", "Potency": "inconclusive: 89.1 µM [inhibitor, single point]"}
{"smiles": "Cc1ccc(O)c(N=Cc2cc(Cc3ccccc3)cc([N+](=O)[O-])c2O)c1", "Potency": "inconclusive: 20 µM [inhibitor, single point]"}
{"smiles": "CCS(=O)(=O)c1ccc2oc(Nc3ccc(OC)cc3)nc2c1", "Potency": "inconclusive: 28.2 µM [inhibitor, single point]"}
{"smiles": "C#CCOc1ccc(Cl)cc1/C=C1/C(=O)ON=C1C", "Potency": "inconclusive: 89.1 µM [inhibitor, single point]"}
{"smiles": "CCOc1ccc2noc3c2c1C(=O)c1ccccc1-3", "Potency": "inconclusive: 25.1 µM [activator, partial curve]"}
{"smiles": "O=C(C1CCCN(Cc2ccccc2F)C1)N1CCc2ccccc2C1", "note": "(centres undefined)", "Potency": "inconclusive: 17.8 µM [inhibitor, partial curve]"}
{"smiles": "COc1cc2c(c(OCC(=O)NC(C)C)c1)C(=O)O[C@@H](C)CCCC(=O)CCCCC2", "Potency": "inactive"}
{"smiles": "COc1ccc(CN(C)C(=O)COC(=O)c2c(-c3ccccc3Cl)noc2C)cc1", "Potency": "inconclusive: 100 µM [inhibitor, single point]"}
{"smiles": "CC(=O)Nc1ccccc1OCc1nnc(-c2ccc(Cl)cc2)o1", "Potency": "inconclusive: 20 µM [inhibitor, partial curve, poor fit]"}
{"smiles": "CCOc1ccc(NC(=O)CN2CC(c3ccccc3)CC2=O)cc1", "note": "(centres undefined)", "Potency": "inactive"}
{"smiles": "CCOC(=O)N1CCN(Cc2nc3cc(NC(=O)C(C)C)ccc3n2CC)CC1", "Potency": "inconclusive: 100 µM [inhibitor, single point]"}
{"smiles": "CN1CCN(C(c2ccc(C(F)(F)F)cc2)c2ccc3cccnc3c2O)CC1", "note": "(centres undefined)", "Potency": "inactive"}
{"smiles": "O=C(N/N=C\\c1ccc[nH]1)C1COc2ccccc2O1", "note": "(centres undefined)", "Potency": "inconclusive: 20 µM [inhibitor, single point]"}
{"smiles": "C[C@@H]1O[C@@H](OC[C@H]2O[C@@H](Oc3c(-c4ccc(O)c(O)c4)oc4cc(O)cc(O)c4c3=O)[C@H](O)[C@@H](O)[C@@H]2O)[C@H](O)[C@H](O)[C@H]1O", "Potency": "inactive"}
{"smiles": "C/C(=N/NS(=O)(=O)c1ccc(C)cc1)[C@H]1C[C@@H]1c1ccccc1", "Potency": "inconclusive: 17.8 µM [inhibitor, single point]"}
{"smiles": "COC(=O)C1=C(C)N=C2SC(C#N)=C(N)N2C1c1ccc(OC)cc1", "note": "(centres undefined)", "Potency": "inconclusive: 224 µM [inhibitor, single point]"}
{"smiles": "OCCNc1nc(-c2ccccc2)nc2ccccc12", "Potency": "inconclusive: 100 µM [inhibitor, single point]"}
{"smiles": "CC(C)CCc1noc(CN(C)CCC2CCOCC2)n1", "Potency": "inconclusive: 79.4 µM [inhibitor, partial curve]"}
{"smiles": "CN1CCC/C1=C/C=C1\\SC(=S)NC1=O", "activity, negative = inhibition": "inconclusive: 56.2% [activator]"}
{"smiles": "CC(C)(C)c1ccc(NC(=O)N2CCCN(c3c(Cl)cncc3Cl)CC2)cc1", "Potency": "inconclusive: 112 µM [inhibitor, single point]"}
{"smiles": "CCC(Cc1ccccc1)NC(=O)C1CCCCC1", "note": "(centres undefined)", "Potency": "inconclusive: 398 µM [inhibitor, partial curve, poor fit]"}
{"smiles": "COc1ccc(-n2c(SCC(=O)N3CCCCC3)nc3ccccc3c2=O)cc1", "Potency": "inconclusive: 22.4 µM [inhibitor, single point]"}
{"smiles": "COC(=O)C(CO)Nc1ncnc2onc(-c3ccc(F)cc3)c12", "note": "(centres undefined)", "Potency": "inconclusive: 22.4 µM [inhibitor, single point]"}
{"smiles": "NS(=O)(=O)c1ccc(NS(=O)(=O)c2ccc(NC(=O)C3CC3)cc2)cc1", "Potency": "inconclusive: 100 µM [inhibitor, single point]"}
{"smiles": "CCOc1ccc(/C=C2\\SC(=S)N(CCCC(=O)NCCCN3CCOCC3)C2=O)cc1", "Potency": "inactive"}
{"smiles": "Cc1ccc(C(=O)CCC(=O)NC2=NCCS2)cc1", "Potency": "inconclusive: 79.4 µM [inhibitor, single point]"}
{"smiles": "Cc1ccc(S(=O)(=O)/C=C2\\NC(=O)CS2)cc1", "Potency": "inconclusive: 70.8 µM [inhibitor, single point]"}
{"smiles": "COc1ccc(C(=O)OCc2cc(C)ccc2C)cc1S(=O)(=O)N1CCCC1", "Potency": "inconclusive: 28.2 µM [inhibitor, single point]"}
{"smiles": "CN1C(=O)[C@H]2[C@@H](/C=C/c3ccccc3)N3C(=O)CN(CCO)C(=O)[C@@]3(Cc3ccccc3)[C@H]2C1=O", "Potency": "inconclusive: 20 µM [inhibitor, single point]"}
{"smiles": "Clc1ccc(C2[C@H]3CN(Cc4ccc(-c5ccccc5)cc4)[C@H](c4ccccc4)C34CC2(c2cccnc2)C4)cn1", "note": "(some centres undefined)", "Potency": "inconclusive: 158 µM [inhibitor, partial curve, poor fit]"}
{"smiles": "Cc1csc(NC(=O)CSc2nc3[nH]ncc3c(=O)[nH]2)n1", "activity, negative = inhibition": "inconclusive: -36.2% [inhibitor]"}
{"smiles": "COC(=O)/C=C1\\NCCNC1=O", "Potency": "inconclusive: 12.6 µM [inhibitor, partial curve, poor fit]"}
{"smiles": "Cc1cc(C)n(-c2cc(C(C)(C)C)nc3c(-c4ccccc4)cnn23)n1", "Potency": "inconclusive: 251 µM [inhibitor, partial curve, poor fit]"}
{"smiles": "Cc1nn(C)c(NC(=O)c2ccccc2Cl)c1Br", "Potency": "inconclusive: 15.8 µM [inhibitor, single point]"}
{"smiles": "CCOC(=O)c1c(S(=O)(=O)Nc2ccc(F)cc2C)c(C)n(C)c1C", "Potency": "inconclusive: 1410 µM [inhibitor, single point]"}
{"smiles": "CCCN1CCN(CCCNC(=O)c2cc3c(s2)-c2c(C)cccc2OC3)CC1", "Potency": "inconclusive: 22.4 µM [inhibitor, single point]"}
{"smiles": "COc1ccccc1CNC(=O)c1cnc2sccn2c1=O", "Potency": "inactive"}
{"smiles": "Cc1ccc(-c2nc(=O)[nH]c3ccc(Br)cc23)cc1", "Potency": "inconclusive: 89.1 µM [inhibitor, single point]"}
{"smiles": "CC(=O)Oc1ccc(/C=C/c2nc3ccccc3c(=O)o2)cc1", "Potency": "inactive"}
{"smiles": "C(=N\\N1CCN(c2ccccn2)CC1)/c1cccc2ccccc12", "Potency": "inconclusive: 224 µM [inhibitor, single point]"}
{"smiles": "Cc1ccc(CS(=O)(=O)c2cn(CC(=O)Nc3ccon3)c3ccccc23)cc1", "Potency": "inactive"}
{"smiles": "Cc1cc2c(cc1S(=O)(=O)CCC(=O)NC1CCC(C)CC1)OCC(=O)N2", "note": "(centres undefined)", "Potency": "inconclusive: 562 µM [inhibitor, single point]"}
{"smiles": "COc1cc(C(=O)NCCc2c[nH]c3ccccc23)ccc1OCc1c(C)noc1C", "Potency": "inconclusive: 100 µM [inhibitor, single point]"}
{"smiles": "Cn1ncc(Cl)c1C(=O)N1CCN(c2ccc(Cl)c(Cl)c2)CC1", "Potency": "inactive"}
{"smiles": "Cc1c(N=NC2=C(O)CCCC2=O)c(=O)n(-c2ccccc2)n1C", "Potency": "inactive"}
{"smiles": "NS(=O)(=O)c1ccc(Sc2ccccn2)c([N+](=O)[O-])c1", "Potency": "inactive"}
{"smiles": "O=C(NCCN1CCCCCC1)C1CCCN1S(=O)(=O)c1cccc2nsnc12", "note": "(centres undefined)", "Potency": "inconclusive: 17.8 µM [inhibitor, partial curve, poor fit]"}
{"smiles": "CCC(CC)NC(=O)c1ccccc1Oc1ccccc1", "Potency": "inconclusive: 12.6 µM [inhibitor, single point]"}
{"smiles": "CC1(C(=O)N2CC3(CC(c4cccc([N+](=O)[O-])c4)=NO3)C[C@H]2C(=O)NCC(N)=O)CC1", "note": "(some centres undefined)", "Potency": "inconclusive: 17.8 µM [inhibitor, single point]"}
{"smiles": "CCc1ccc(C(=O)NNc2ccc(Cl)cc2)cc1", "Potency": "inconclusive: 100 µM [inhibitor, single point]"}
{"smiles": "Cc1ccc(O)c(N=Nc2ccc(S(=O)(=O)N3CCCC3)cc2)c1", "Potency": "inconclusive: 100 µM [inhibitor, single point]"}
{"smiles": "CCC(CC)C(=O)N1CC(=O)Nc2ccc(Br)cc2C1c1ccccc1", "note": "(centres undefined)", "Potency": "inconclusive: 89.1 µM [inhibitor, single point]"}
{"smiles": "COC(=O)c1ccc(COc2ccc(/C=N/Nc3cccc(C(=O)O)c3)cc2)cc1", "Potency": "inactive"}
{"smiles": "CSc1ncccc1C(=O)OCC(=O)C(C)(C)C", "Potency": "inconclusive: 22.4 µM [inhibitor, partial curve]"}
{"smiles": "COc1ccc(N(C(=O)c2cccc(OC)c2OC)C2C=CS(=O)(=O)C2)cc1", "note": "(centres undefined)", "Potency": "inconclusive: 22.4 µM [inhibitor, single point]"}
{"smiles": "Cc1ccc(C(=O)Nc2ccc(Cc3ccncc3)cc2)cc1[N+](=O)[O-]", "Potency": "inactive"}
{"smiles": "CC(C)Cn1c(N)c(C(=O)COC(=O)c2ccc(Cl)cc2)c(=O)n(C)c1=O", "Potency": "inconclusive: 89.1 µM [inhibitor, single point]"}
{"smiles": "Nc1nc(Br)c2ccccc2c1-c1ccccc1", "Potency": "inconclusive: 100 µM [inhibitor, single point]"}
{"smiles": "C/C=C(\\C)C(=O)OC1CC(C)(C)C[C@H]2C3=CC[C@@H]4[C@@]5(C)CCC(O[C@@H]6O[C@@H](C(=O)O)[C@@H](O)C(O[C@@H]7OC[C@H](O)[C@@H](O)[C@@H]7O[C@@H]7OC(CO)C(O)[C@@H](O)[C@@H]7O)C6O[C@@H]6OC(CO)C(O)C(O)C6O)[C@@](C)(CO)[C@@H]5CC[C@]4(C)[C@]3(C)CC(O)[C@@]12CO", "note": "(some centres undefined)", "Potency": "inactive"}
{"smiles": "Oc1[nH]c2ccccc2c1N=Nc1nncc2ccccc12", "Potency": "inconclusive: 89.1 µM [inhibitor, single point]"}
